In patent publication EP4559923A1, “ANTIHISTAMINE COMPOUND, AND PREPARATION METHOD THEREFOR AND USE THEREOF” (HC Synthetic Pharmaceutical Co., Ltd., priority 2022, dated 2024):

Test system: isolated ileal smooth muscle
Test: Muscle tone of isolated ileal smooth muscle of guinea pigs, compound alone
Conditions: Table 3, no histamine, X±s, n = 8
Procedure: The guinea pig was knocked unconscious with a wooden stick, and the abdomen was immediately dissected to separate the ileum about 15 cm in length. The contents of the intestinal segment were flushed with Tyrode's solution and placed in Tyrode's solution at a constant temperature of 37°C for later use, and oxygen was supplied simultaneously. The experimental intestinal tract (1 cm in length) was cut and placed into 20 ml of Tyrode's solution at a constant temperature of 37°C with a continuous oxygen supply. One end of the intestine was fixed on the ventilation hook and the other end was connected to the muscle tone transducer and led to the computer interface. The muscle tone value of the ileal smooth muscle was recorded with a BL system. The experiment was carried out after the intestinal segment contraction became stable.
After the ileum contraction curve stabilized, the tone values before adding the drug were recorded, then the drug or DMSO was added, and the average tone value of the ileum contraction curve at that point was recorded 5 minutes later. The operation was repeated 8 times. The antispasmodic percentage was calculated according to the following formula. Antispasmodic percentage =; (Tone value before adding subject compound−Tone value after adding subject compound)/(Tone value before adding subject compound) × 100% [formula]

## Clc1ccc2c(c1)CCc1cccnc1C2=C1CCNCC1 [Desloratadine, desloratadine, reference compound]
5 minutes after adding the drug
  Smooth muscle tone (g) After administration: 1.33 ± 0.28 g
Relative to tone before adding compound, 5 min
  Antispasmodic percentage (%): 22.94±9.21%
